Measured values taken from the supplement of paper PMC5949888.
Most values lie at the floor of the assay. Slopes are relative: functional sequences can read slightly below zero.

Tested on: Saccharomyces cerevisiae PS128 hsf1 delta, HSF1(1-493) fusion
Experiment: growth estimate (transactivation domain function in HSF1 fusion, heat-shock survival) (a.u. (slope of normalised read count over time)); higher = stronger growth at 37°C, i.e. more transactivation activity
Settings: library: random library
Method: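 Random 60-nt DNA library encoding peptides of up to 20 aa, fused to the C-terminus of yeast HSF1 residues 1-493 (C-terminal TAD deleted) and expressed from the native HSF1 promoter on a CEN plasmid in hsf1-deleted S. cerevisiae PS128. Cells were selected at 37°C on -trp 5-FOA plates for 0, 2, 4, 6 and 8 days and amplicons were sequenced. Growth estimate is the slope of a robust linear fit of total-sum-normalised read counts (normalised to the first time point) over time, using at least 2 replicates. Sequences are classed functional (TAD activity) above a threshold of -0.13, set from stop-codon control sequences.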

Row | Substance | growth estimate
1 | YKAEF | < -0.25
2 | EELDYLKGNPRLYEAVDAHS | < -0.25
3 | FFSYVSNLSSDALAIREAVA | < -0.25
4 | GSLFPRRRANLGFSDRSAWA | < -0.25
5 | GQNDVEVDEYPERAVISRYH | < -0.25
6 | KGKERSNHCGQAKKGLEALR | < -0.25
7 | RIVHAGQVGRDSS | < -0.25
8 | QCYGCLGMGHSWGAVRNGEA | < -0.25
9 | SKLAAVRSHLF | < -0.25
10 | RLKASTGASANGKICTAL | < -0.25
11 | HLPSWCWALLS | < -0.25
12 | GSINFLITVLDRSPTVLEAP | < -0.25
13 | SQPAWME | < -0.25
14 | TKVMIAGSKNVIHPREACSA | < -0.25
15 | WLPVIC | < -0.25
16 | RKASAYVRFCMHVRCVVQVL | < -0.25
17 | PSVGLEREFGHRKCRTLRSD | < -0.25
18 | SWTLSTWTEDIALGRYIACR | < -0.25
19 | DGLILNVGVRITRNSPGDQI | < -0.25
20 | REARSSLVVKGVGPRWVETL | < -0.25
21 | WSR | < -0.25
22 | MSERSKRTVL | < -0.25
23 | LCEDLQEGSRIWNAST | < -0.25
24 | GTISRVIPHGCAR | < -0.25

Row | Substance | growth estimate
25 | IRPLGNRQR | < -0.25
26 | GRVQRCTQYLLSAVAGDRIG | < -0.25
27 | GRCVPRFVKLIA | < -0.25
28 | LGSC | < -0.25
29 | NDKY | < -0.25
30 | AYLIRLAACPKTVTTHLDKC | < -0.25
31 | SRVPGC | < -0.25
32 | TLGAIRLSTTPNLFSYYRQG | < -0.25
33 | GLVRLWVPGAQPTVGW | < -0.25
34 | ESTQGS | < -0.25
35 | QHRGRSVRIRIGYGRC | < -0.25
36 | GPSYLGDHNFKSVTWAGVIV | < -0.25
37 | SLCLTAPCLRAYLSKARTLH | < -0.25
38 | CLGDSKEPIGRFLQRRSYDV | < -0.25
39 | SILTGCPRKGTPWIKLILTH | -0.245
40 | CPWILSAFTIPCEVFPKSDV | < -0.25
41 | RVVSDANCRLRIRHGRNRGP | < -0.25
42 | QSQR | < -0.25
43 | KDEELPQAVVSFLFPDESSR | -0.189
44 | DGWGW | < -0.25
45 | RTLPLRFPGAQPLYQ | < -0.25
46 | WTADSGICRLVGWDTPRERP | < -0.25
47 | FKTTVERAQK | < -0.25
48 | EREGNVIRGLPAEERV | < -0.25

Some of the entries above in another layout.
QHRGRSVRIRIGYGRC
  growth estimate = < -0.25
EREGNVIRGLPAEERV
  growth estimate = < -0.25

(continued)

Row | Substance | growth estimate
49 | GRKGPVTAAGSRRLG | < -0.25
50 | TGANRTLNNIEHRSSDDRSS | < -0.25
51 | YLSGPGPYGFRIILQRGRPP | < -0.25
52 | MMFW | -0.107
53 | CIDQERRRHEICMNSYTG | < -0.25
54 | ESGKGLGS | < -0.25
55 | PEYIPVNAKAAFS | < -0.25
56 | VTEF | -0.243
57 | TESGENCLPREPSTLGALTF | < -0.25
58 | VPHDLLAILCGPREISEHII | < -0.25
59 | QYKEHPSTLAGPTDYTGRPV | 0.108
60 | RISMGDSMELTIGVLLAKGI | < -0.25
61 | NPG | < -0.25
62 | WVCVFGSASCGYY | < -0.25
63 | CRESNKCPPGGINKRTAEPR | < -0.25
64 | SARGGNAFRLRSYLLR | < -0.25
65 | KAWGDGRP | < -0.25
66 | TQHRGGRKME | < -0.25
67 | VPESFGCDVISRK | < -0.25
68 | DCRFARDSLIRLDEKEWEKC | < -0.25
69 | QPSAKAPISGAIVLRKFTGA | < -0.25
70 | DEQGLKHVVLRQTLSEYCGI | < -0.25
71 | FPQAAPQSHRG | < -0.25
72 | FIWFLYRTTSNRR | < -0.25

As entered above.
For growth estimate, DCRFARDSLIRLDEKEWEKC has < -0.25
For growth estimate, FPQAAPQSHRG has < -0.25

Going on with the list:

Row | Substance | growth estimate
73 | SEERVWDMGESKTVLLWFQP | < -0.25
74 | PRVRIAATTLPAIAPTFRSG | < -0.25
75 | RAPEAWVRYRAVRIEESIRD | < -0.25
76 | NEAHLPNPADSCGETAISRE | < -0.25
77 | GPRDLSGA | < -0.25
78 | CGNRLNPGFYGSASHARHIE | < -0.25
79 | LQVR | < -0.25
80 | LLYAELGQKSEEDVRV | < -0.25
81 | KYQ | < -0.25
82 | SVLL | < -0.25
83 | TRFLR | < -0.25
84 | VTGRSIQCNVCVTVSSVGDS | < -0.25
85 | CVKVLTLT | < -0.25
86 | NGNLLVAAKGRRAQGTILQS | < -0.25
87 | NIQFHYPSSAQVRCWITNQT | < -0.25
88 | KRSSVCAYPHRSTQLPAPDA | < -0.25
89 | GSETNLTWPGLSSLLGGCGQ | < -0.25
90 | RRVEL | < -0.25
91 | HHTTMDRPGGSEWTNAP | < -0.25
92 | ILTLGGMTGVLTFNYA | < -0.25
93 | LRREKGVCPEKYLQNPLALH | < -0.25
94 | SGLTVIPTGMVARAGSFWVG | < -0.25
95 | YQHRGSTCTMPQGGRHRR | < -0.25
96 | GIGSGLVQSHTVGLLFMGNR | < -0.25
